Drawing on PubChem BioAssay AID493014 (National Center for Advancing Translational Sciences (NCATS), 2011), this text covers AC50 for 18 compounds.

Molecules are shown by their SMILES. The list shows a part of the results. Further columns of the screen follow, without active or inactive calls. Most of these compounds were active or inconclusive in the main read-out, so they are no random draw. The note in brackets gives the kind of curve behind each potency; many fits are weak.

The nature of this assay: qHTS Assay to Find Inhibitors of Chronic Active B-Cell Receptor Signaling. Conditions: ABC-DLBCL IkBa-CBG/CBR reporter, luminescence ratio (green luciferase fused to IkBa over red control in TMD8 lymphoma cells), 4 h. Put shortly:
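TMD8 ABC-DLBCL cells carrying doxycycline-inducible green luciferase fused to IkappaBalpha plus unfused red luciferase were exposed to compounds (up to 46 uM) for 4 hrs at 37C. Activity came from the overlap-corrected green/red luminescence ratio.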
In general terms: Quantitative high-throughput screening tests each substance at several concentrations.

The mark [1] stands for this setting: measured here: CBR red luminescence, cell number.

As a reminder, the AC50 is the concentration giving half of the maximal activity seen. Take `O=c1c(Cl)c(NCc2ccco2)cnn1C12CC3CC(CC(C3)C1)C2`: the AC50 under setting [1] is 22.4 µM [rising, single point].
Same read-out and setting: in the case of `C/C(=N\Nc1ccc(S(N)(=O)=O)cc1[N+](=O)[O-])c1ccc2c(c1)OCO2` it was 14.1 µM [rising, partial curve, poor fit]; in that of `CC(C)(C)NC(=O)c1cc(-c2ccccc2)n[nH]1`, 35.5 µM [falling, single point].
Still for that read-out and setting: in the case of `CCOC(=O)c1ccccc1NC(=O)CSc1nc2ccccc2o1` it was 20 µM [rising, single point].
On the same count and under the same terms, in the case of `Cc1nc2ccccn2c1C(=O)NN=C1CCCC1` it was 3.16 µM [falling, single point].
For the compound `COc1ccccc1-c1cc(C(=O)Nc2c(C)n(C)n(-c3ccccc3)c2=O)no1`, the AC50 under setting [1] was 8.91 µM [falling, partial curve, poor fit].
The same measure, in the same setting: in the case of `Cn1c(/C=N/c2nc3ccccc3[nH]2)nc2ccccc21` it was 25.9 µM [falling, single point].
With `O=C(CSc1nnc(-c2ccco2)o1)N1CCCCC1`, under setting [1], the AC50 is 35.5 µM [falling, single point].
On to `Cc1cccc(C(=O)Nc2ccc(C(=O)/C=C/c3ccncc3)cc2)c1`, for which the AC50 under setting [1] is 12.6 µM [rising, single point] and the AC50 (measured here: IkBa-CBG green luminescence) was 35.5 µM [falling, single point].
In the case of `CC[C@]1(c2ccccc2OC)ON(c2ccccc2C(F)(F)F)C1=O`, under setting [1], the AC50 was 32.6 µM [falling, single point].
`O=C(NC1CCCCC1)c1cc2cc(Br)ccc2o1`: the AC50 under setting [1] is 3.55 µM [falling, partial curve].
Still for that read-out and setting: in the case of `CCOC(=O)CCc1c(C)nc2ncnn2c1C` it was 35.5 µM [falling, single point]; in that of `COc1ccc(OC)c(-c2nn(-c3ccccc3)cc2C(=O)NCC(c2ccco2)N2CCCC2)c1` (centres undefined), 4.11 µM [falling, single point].
The same measure, in the same setting: in the case of `CC(CCc1ccccc1)NC(=O)C(=O)Nc1ccccc1` (centres undefined) it was 14.6 µM [falling, partial curve]; in that of `COc1cc(OC)cc(C(=O)Nc2ccc(S(=O)(=O)Nc3ccccn3)cc2)c1`, 2.51 µM [falling, partial curve, poor fit].
Regarding `O=C1c2ccc3c4c(ccc(c24)C(=O)N1c1cccc(O)c1)C(=O)N(c1cccc(O)c1)C3=O`, the AC50 under setting [1] was 10 µM [falling, partial curve, poor fit].
Still for that read-out and setting: in the case of `COc1cc(NC(=O)C2=CC(c3ccc(C)cc3)=NS(=O)(=O)N2C)cc(OC)c1OC` it was 35.5 µM [falling, single point]; in that of `O=C(O)C1Sc2[nH]c(=O)sc2C2c3cc(Br)ccc3OC(=O)C12` (centres undefined), 35.5 µM [rising, single point].
